Measured values reported in patent publication US20210401926A1, “PHARMACEUTICAL FORMULATIONS OF PEPTIDE INHIBITORS” (CANIMGUIDE THERAPEUTICS AB, priority 2018, published 2021).
At least one peptide structure holds a part that was inferred or is arguable (an end, a ring closure or a residue). Where no end group is shown, it is not given here.

What was measured:
[1] = tested on: spontaneous canine tumours (mammary tumours); assay: Intra-tumoral treatment of spontaneous canine tumours; format: in vivo, dogs
[2] = tested on: PBMCs from cancer patients; assay: Reversal of suppressed IL-2 induced proliferation of PBMCs (BrdU incorporation); format: cell-based, human; settings: 7 days with IL-2
healthy PBMC's = assay: PBMC activation, CD69 or CD71 by flow cytometry, normal human AB serum; format: cell-based; settings: 40 μg/mL, 24 hours, RPMI plus 10% human AB serum
Description: FIG. 2A-B are a series of graphs illustrating effects of the full length peptide P28R and the 6 amino acid central sequence (32230, FFVKLS, SEQ ID NO: 1) in culture medium containing normal human AB serum. Activation is determined as percentage of cells with enhanced marker CD69 or CD71 using flow cytometry. PBMCs were incubated with the peptides (40 μg/mL) for 24 hours in RPMI plus 10% human AB serum. FIG. 2A illustrates the results of two experiments (420 and 422) performed for each peptide. FIG. 2B illustrates the results of two experiments (424 and 426) performed for each peptide.
P28R (SEQ ID NO: 2) can stimulate PBMC's from healthy controls in short term cultures when RPMI plus 10% normal human AB serum is used as culture medium. Truncations of P28R were also assessed for their ability to activate PBMC's. PBMCs were incubated with the peptides (40 μg/mL) for 24 hours in RPMI plus 10% human AB serum. PBMC activation was measured as percent cells with enhanced expression of either CD69 (FIG. 2A) or CD71 (FIG. 2B) using flow cytometry. Two experiments were performed for each peptide.
A test for direct stimulatory effects on immune cells was performed.

PBMCs [3] = assay: Stimulatory activity on PBMCs in human ex vivo models (MTS or CFSE); format: cell-based
tumour cells = assay: Mouse tumour experiments: inflammatory response, tumour cell death, synergy with antibodies against PD-1 and PD-L1; format: in vivo
PBMCs [4] = assay: PBMC activation (CD69) in culture medium containing cancer sera; format: cell-based; settings: sera from dogs with cancer or human patients with cancer instead of normal AB serum
Description: FIG. 3 is a graph illustrating a comparison of the full length peptide P28R and the 6 amino acid “P28 core” sequence (32230, FFVKLS, SEQ ID NO: 1) in culture medium containing sera from two different cancer patients (“human ca serum 1” 430 and (“human ca serum 2” 432).
Additionally, P28R and P28 core were tested for their ability to alleviate immunosuppression in cancer cells.

[5] = Sterile filtration and gel formation observations; format: physicochemical; settings: pH 3.6
[6] = tested on: generalised high grade B-cell lymphoma; assay: Injection into lymph node of a dog with B-cell lymphoma; format: in vivo; settings: one injection of 200 micrograms in 500 microliter into one popliteal lymph node; 5 days
[7] = tested on: progressive squamous cell carcinoma of the alveolar ridge; assay: Weekly intra-tumoural injections in a dog with squamous cell carcinoma; format: in vivo; settings: ten weekly intra-tumoural injections of 80 micrograms in 200 microliter; after three months
[8] = tested on: spontaneous canine breast tumours; format: in vivo; settings: doubling and quadrupling the initial 80 microgram dose
LFA-1 (CD11a) = assay: Ex vivo treatment of fresh frozen tumour sections, staining for LFA-1 (CD11a); format: cell-based, human
spontaneous tumors = assay: Intratumoral P28R in Formula A, dogs with spontaneous tumors (study CIG-1301); format: in vivo; settings: intratumoral administration
CT26 colon cancer = assay: Systemic subcutaneous P28R in mice with CT26 colon cancer; format: in vivo; settings: subcutaneous 12 microgram twice weekly for two weeks
[9] = tested on: multiple, recurrent mammary tumours; assay: Repeated injections in a dog with recurrent mammary tumours; format: in vivo; settings: 9 usually weekly injections of 80 micrograms in 20 microliter
[10] = P28R concentration in flow through after sterile filtration (spectrophotometer); format: physicochemical
[11] = 40 nmol in 200 microliters intra-tumoral, dogs with mammary tumours

Sequence: KKLDTFFVKLSLFTER [P28R]
- inflammatory infiltrate in tumours [1, 11]: marked inflammatory infiltrate was found in all treated tumours
- number of degenerative tumour cells [1, 11]: increased compared to 14 untreated tumours
- response in uninjected tumours ([1]; two dogs with multiple tumours): same response to P28R was found not only in the injected tumours but also in uninjected tumours
- IL-2 induced proliferation of PBMCs ([2]; PBMCs with a high initial proliferation (FIGS. 1C, 1D)): essentially unaffected
- IL-2 induced proliferation of PBMCs ([2]; PBMCs with a low initial proliferation (FIGS. 1A, 1B)): markedly stimulated
- PBMC activation (enhanced expression of CD69 or CD71) (healthy PBMC's): effectively activated healthy PBMC's
- stimulatory activity on PBMCs (PBMCs [3]; PBMCs of 7 cancer patients of various diagnoses, absence of other types of stimulation): significant stimulatory activity in 6 out of 7 cancer patients
- stimulatory activity on PBMCs (PBMCs [3]; PBMCs of 7 healthy control samples): only a weak or no stimulation
- synergy, evaluated as growth retardation (tumour cells; P28R with antibodies directed against PD-1 and PD-L1): statistically significant synergistic effect
- inflammatory response (tumour cells; mouse experiments, after injection of P28R): strong inflammatory response was induced within 3-5 days
- recruitment of CD8+ cells (tumour cells; prolonged treatment period of 2 weeks): significantly enhanced recruitment of CD8+ cells
- eradication of tumour cells (tumour cells; short time period after injection, morphological criteria, TUNEL and Feulgen staining): impressive eradication of tumour cells
- PBMC activation (enhanced expression of CD69) (PBMCs [4]): activated PBMCs
- state of peptide in solution [5]: remained dissolved in liquid solution
- clinical finding of injected tumour [6]: the injected tumour could not be found clinically
- histopathological response of injected tumour [7]: histopathological complete remission of the injected tumour
- anti-tumor effects on dose escalation [8]: maintained anti-tumor effects
- blocking of LFA-1 (CD11a staining) (LFA-1 (CD11a); fresh frozen human breast cancer sections incubated with P28R, compared with phosphate buffered saline): reversed the blocking of LFA-1 leading to enhanced intensity of staining
- LFA-1 membrane staining (LFA-1 (CD11a); human breast and tongue cancer sections with only moderate infiltration of inflammatory cells): could be un-blocked by ex vivo P28R treatment
- treatment effect (spontaneous tumors): a clear treatment effect could be detected
- apoptosis of tumour cells (CT26 colon cancer): Apoptosis was induced in the majority of tumour cells
- histopathological examination [9]: strong inflammatory response, but also remaining tumour cells
- total amount of peptide needed to saturate the filter ([10]; 50 mm Baxter filter, calculated from loss of peptide after filtration): ~0.1 mg
- P28R concentration in flow through ([10]; Aliquot 1 (1.0 ml), Formula B pH 4.8 without NaCl, 0.26 mg/ml, 50 mm Baxter filter saturated from previous filtration): 0.22 mg/mL
- P28R concentration in flow through ([10]; Aliquot 1 (1 ml), Formula B without NaOH and NaCl, pH 3.6, 0.27 mg/ml, 25 mm 0.2 μm PES filter): 0.26 mg/mL
- P28R concentration in flow through ([10]; Aliquot 1 (1 ml), Formula B without NaOH and NaCl, 50 mm Baxter filter): 0.18 mg/mL
- P28R concentration in flow through ([10]; Aliquot 1, Formula B without NaCl and NaOH, pH 3.6, 0.37 mg/ml, PES filter): 0.31 mg/mL
- P28R concentration in flow through ([10]; Aliquot 2 (1.0 ml), Formula B pH 4.8 without NaCl, 0.26 mg/ml, 50 mm Baxter filter saturated from previous filtration): 0.25 mg/mL
- P28R concentration in flow through ([10]; Aliquot 2 (1 ml), Formula B without NaOH and NaCl, pH 3.6, 0.27 mg/ml, 25 mm 0.2 μm PES filter): 0.28 mg/mL
- P28R concentration in flow through ([10]; Aliquot 2 (1 ml), Formula B without NaOH and NaCl, 50 mm Baxter filter): 0.24 mg/mL
- P28R concentration in flow through ([10]; Aliquot 2, Formula B without NaCl and NaOH, pH 3.6, 0.37 mg/ml, PES filter): 0.34 mg/mL
- P28R concentration in flow through ([10]; Aliquot 3 (1.0 ml), Formula B pH 4.8 without NaCl, 0.26 mg/ml, 50 mm Baxter filter saturated from previous filtration): 0.26 mg/mL
- P28R concentration in flow through ([10]; Aliquot 3 (1 ml), Formula B without NaOH and NaCl, pH 3.6, 0.27 mg/ml, 25 mm 0.2 μm PES filter): 0.28 mg/mL
- P28R concentration in flow through ([10]; Aliquot 3 (1 ml), Formula B without NaOH and NaCl, 50 mm Baxter filter): 0.26 mg/mL
- P28R concentration in flow through ([10]; Aliquot 3, Formula B without NaCl and NaOH, pH 3.6, 0.37 mg/ml, PES filter): 0.36 mg/mL
- P28R concentration in flow through ([10]; Aliquot 4 (1.0 ml), Formula B pH 4.8 without NaCl, 0.26 mg/ml, 50 mm Baxter filter saturated from previous filtration): 0.25 mg/mL
